Data as given in PMC9176654.
Results are given in words; binding and its absence hold for the method and conditions named. In cells and extracts the contact can be indirect. A yes stands for co-enrichment or nearness to the bait. Other partners may have been found.

By UniProt entry, the sequences of proteins in these tests, tags left out.
UniProt P0DTC3: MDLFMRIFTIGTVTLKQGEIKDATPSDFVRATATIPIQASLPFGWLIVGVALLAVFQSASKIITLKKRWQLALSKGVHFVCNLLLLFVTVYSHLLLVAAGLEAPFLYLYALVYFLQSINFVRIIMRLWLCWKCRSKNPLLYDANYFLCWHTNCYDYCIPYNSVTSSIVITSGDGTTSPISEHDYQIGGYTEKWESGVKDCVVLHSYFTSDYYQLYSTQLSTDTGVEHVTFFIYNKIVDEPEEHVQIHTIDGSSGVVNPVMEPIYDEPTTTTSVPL

Target: SARS-CoV-2 accessory protein ORF3a (SARS-CoV-2) (UniProt P0DTC3)
Assay: two-hybrid + affinity purification with mass spectrometry

B1: ZNF579 (protein, UniProt Q8NAF0 1-562)
chain: MDPQPPPPAQGSPPHRGRGRGRGRGRGRGRGRGRGGAGAPRAPLPCPTCGRLFRFPYYLSRHRLSHSGLRPHACPLCPKAFRRPAHLSRHLRGHGPQPPLRCAACPRTFPEPAQLRRHLAQEHAGGEVELAIERVAKETAEPSWGPQDEGSEPPTTAAAGATEEEAVAAWPETWPAGEPSTLAAPTSAAEPRESESEEAEAGAAELRAELALAAGRQEEKQVLLQADWTLLCLRCREAFATKGELKAHPCLRPEGEQEGEGGPPPRPKRHQCSICLKAFARPWSLSRHRLVHSTDRPFVCPDCGLAFRLASYLRQHRRVHGPLSLLAPLPAAGKKDDKASGARNSAKGPEGGEGAECGGASEGGEGQNGGDAAPARPPAGEPRFWCPECGKGFRRRAHLRQHGVTHSGARPFQCVRCQREFKRLADLARHAQVHAGGPAPHPCPRCPRRFSRAYSLLRHQRCHRAELERAAALQALQAQAPTSPPPPPPPLKAEQEEEGLPLPLANIKEEPPSPGTPPQSPPAPPVFLSASCFDSQDHSAFEMEEEEVDSKAHLRGLGGLAS
Which binding does the source give for B1 here?
The binding was “binds”.
